Source: patent US9006218B2, “Nucleoside phosphonate salts” (Chimerix Inc., priority 2010, dated 2015)
At least one structure is not confirmed: it was looked up by name or label, or the drawing left a doubt.

Assay type: physicochemical
Description: Stability testing was performed for CMX157 and its salts to investigate the quality of the compound over time under various environments. Accelerated conditions were established using an Isotemp Vacuum Oven set at either 40° C. or 60° C. If high humidity was needed, a saturated solution of sodium chloride created an air state containing about 75% humidity.
For determining the amount of CMX157 present in the samples within the stability study, a reference standard of a known purity was used. […] For analysis, 40 mg of samples and standards are dissolved in 100.0 mL diluent (80 H2O: 20 Methanol: 2 NH4OH). Separation of the drug substance and impurities was achieved using a mobile phase gradient (Table 1) on a Shimadzu A20 HPLC with a Phenomenex Synergi Polar RP 4μ 150×3 mm column. By comparing the areas for the samples at wavelength of 259 nm (kmax) to that of the reference standard, the percentage of CMX157 was determined.

CCCCCCCCCCCCCCCCOCCCOP(=O)(O)CO[C@H](C)Cn1cnc2c(N)ncnc21 [CMX157, 3-(hexadecyloxy)propyl hydrogen ((R)-1-(6-amino-9H-purin 9-yl)propan-2-yloxy)methylphosphonate]
percentage of CMX157, 4 week 40/75 (4 week, 40/75 (40° C., about 75% humidity)): 93.9% | percentage of CMX157, 4 week 60° C. (4 week, 60° C.): 70.2% | decomposition of the compound (60° C. for 4 weeks (28 days)): about 30% | percentage of CMX157, 9 days 40/75 (9 days, 40/75 (40° C., about 75% humidity)): 91.5% | percentage of CMX157, 9 days 60° C. (9 days, 60° C.): 81.4% | percentage of CMX157, Initial (initial, before storage): 94.5%
